From doi:10.1101/2020.12.08.415711

By UniProt entry, the sequences of proteins in these tests, tags left out. Where a name states a change or a piece, a line headed by the entry shows the natural chain unless it says otherwise.
UniProt Q9SXA1: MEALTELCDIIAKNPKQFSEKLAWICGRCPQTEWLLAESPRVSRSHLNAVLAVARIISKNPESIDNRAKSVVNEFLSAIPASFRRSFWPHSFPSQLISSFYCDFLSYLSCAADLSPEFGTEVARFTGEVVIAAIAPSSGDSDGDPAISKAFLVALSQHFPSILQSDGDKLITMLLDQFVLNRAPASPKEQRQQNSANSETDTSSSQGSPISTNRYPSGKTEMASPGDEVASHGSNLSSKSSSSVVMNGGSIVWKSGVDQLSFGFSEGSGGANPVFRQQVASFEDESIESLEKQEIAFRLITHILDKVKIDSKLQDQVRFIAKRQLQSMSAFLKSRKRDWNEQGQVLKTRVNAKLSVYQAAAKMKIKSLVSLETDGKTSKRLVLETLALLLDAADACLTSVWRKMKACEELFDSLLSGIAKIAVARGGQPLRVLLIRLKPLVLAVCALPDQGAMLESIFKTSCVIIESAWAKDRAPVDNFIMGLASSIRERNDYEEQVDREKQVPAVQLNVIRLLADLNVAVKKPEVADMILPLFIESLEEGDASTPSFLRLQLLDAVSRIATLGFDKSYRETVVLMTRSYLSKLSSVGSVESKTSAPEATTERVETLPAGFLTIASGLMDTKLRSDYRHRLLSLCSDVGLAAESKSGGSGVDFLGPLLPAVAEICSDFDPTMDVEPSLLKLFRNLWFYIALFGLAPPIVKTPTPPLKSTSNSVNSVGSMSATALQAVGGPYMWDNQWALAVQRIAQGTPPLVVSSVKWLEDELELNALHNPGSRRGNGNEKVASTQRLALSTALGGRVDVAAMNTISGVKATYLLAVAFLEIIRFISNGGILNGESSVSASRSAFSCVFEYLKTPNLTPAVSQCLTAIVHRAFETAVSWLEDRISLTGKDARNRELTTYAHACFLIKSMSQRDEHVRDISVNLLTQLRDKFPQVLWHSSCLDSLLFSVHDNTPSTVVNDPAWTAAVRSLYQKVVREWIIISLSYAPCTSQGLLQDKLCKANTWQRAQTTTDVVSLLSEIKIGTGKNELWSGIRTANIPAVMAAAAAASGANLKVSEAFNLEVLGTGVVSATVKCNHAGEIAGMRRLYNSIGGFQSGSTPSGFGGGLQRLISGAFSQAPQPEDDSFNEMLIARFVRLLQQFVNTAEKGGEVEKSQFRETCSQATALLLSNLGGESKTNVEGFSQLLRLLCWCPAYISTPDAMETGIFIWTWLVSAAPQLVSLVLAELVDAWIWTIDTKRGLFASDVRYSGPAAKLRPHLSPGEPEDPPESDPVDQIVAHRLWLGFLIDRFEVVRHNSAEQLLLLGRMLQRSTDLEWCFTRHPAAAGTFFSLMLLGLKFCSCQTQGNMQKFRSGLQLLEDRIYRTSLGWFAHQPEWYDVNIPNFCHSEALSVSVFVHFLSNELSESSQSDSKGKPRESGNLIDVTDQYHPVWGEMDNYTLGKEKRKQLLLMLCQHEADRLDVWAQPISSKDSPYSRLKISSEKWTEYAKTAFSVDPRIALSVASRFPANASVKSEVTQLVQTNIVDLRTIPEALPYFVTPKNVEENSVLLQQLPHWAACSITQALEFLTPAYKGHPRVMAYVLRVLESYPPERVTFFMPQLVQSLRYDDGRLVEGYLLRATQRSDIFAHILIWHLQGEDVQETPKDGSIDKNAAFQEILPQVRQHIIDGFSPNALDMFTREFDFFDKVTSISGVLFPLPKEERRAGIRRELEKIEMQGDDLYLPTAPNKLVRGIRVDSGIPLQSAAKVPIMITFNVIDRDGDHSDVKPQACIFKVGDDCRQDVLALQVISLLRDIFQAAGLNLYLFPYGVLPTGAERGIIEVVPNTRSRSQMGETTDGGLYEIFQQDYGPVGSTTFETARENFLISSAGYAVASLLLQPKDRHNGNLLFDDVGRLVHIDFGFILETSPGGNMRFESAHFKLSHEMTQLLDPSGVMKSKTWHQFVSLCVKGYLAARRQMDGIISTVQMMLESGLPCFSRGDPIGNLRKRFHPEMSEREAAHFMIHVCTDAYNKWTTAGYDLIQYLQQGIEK

Legend:
[1] = molecular target: PI4Kα1, large N-terminal part (bait of the yeast-two-hybrid screen) (Arabidopsis thaliana) (UniProt Q9SXA1); test: two-hybrid
[2] = molecular target: HYC2-mCITRINE (Arabidopsis thaliana); test: co-IP

Binder | binding [1] | binding [2]
NPG1 (NO POLLEN …ON 1), clones of the yeast-two-hybrid library (domain or fragment, UniProt Q8GZN1 444-704) RNLKAASRYAKEFIDATGGSVLKGWRFLALVLSAQQRFSEAEVVTDAALDETAKWDQGPLLRLKAKLKISQSNPTEAVETYRYLLALVQAQRKSFGPLRTLSQMEEDKVNEFEVWHGLAYLYSSLSHWNDVEVCLKKAGELKQYSASMLHTEGRMWEGRKEFKPALAAFLDGLLLDGSSVPCKVAVGALLSERGKDHQPTLPVARSLLSDALRIDPTNRKAWYYLGMVHKSDGRIADATDCFQAASMLEESDPIESFSTIL | binds | –
NPGR2, clone of the yeast-two-hybrid library (domain or fragment, UniProt Q66GN3 414-739) LGKECSQLDGAARFVLGITLTESSRMAVTETERIARQSEGIQALESADMTNPRVVHRLALENAEQRKLDSALAYAKEALKLGAESDLEVWLLLARVLSAQKRFSDAETIVDAALNETGKWEQGKLLRLKAKLRLAKGEVKDAIKTYTQLLALLQVQSKSFNSAKKLPKGYVKELMSLELGTWHDLAHIYINLSQWRDAESCLSRSRLIAPYSSVRYHIEGVLYNRRGQLEEAMEAFTTALDIDPMHVPSLTSKAEILLEVGNRSGIAVVRSFLMEALRIDRLNHSAWYNLGKMFKAEGSVSSMQEAVECFQAAVTLEETMPVEPFR | binds | –
NPGR2, endogenous (protein, UniProt Q66GN3 1-739) MKNSEIRPEKLHLRKLRKSLRKIRMKCLCSGEQMRHREEEDKKSEVGVGRDYNGSSALSTAESENAKKLDNGNIEEAELSLRETSSLNYEEARALLGRIEYQKGNIEAALRVFEGIDINGITVKMKTALTVREDRKHRRRSKGGFSTAPSPAMSKHAVSLLFEAIFLKAKSLQRLGRFQEAAESCRVILDIVETSLAEGASDNVTGDIKLQETLTKAVELLPELWKLADSPRDAILSYRRALLNHWKLDPETTARIQKEYAVFLLYSGEEAVPPNLRSQTEGSFIPRNNVEEAILLLMLLLRKVNLKRISWDAAILDHLSFALTIAGDLTALAKQFEELSPELLDQRELYHTLSLCYQGAGEGLVALGLLRKLFSEREDPNRTSGLLMASKICGERSGLAEEGLDYARKAIGNLGKECSQLDGAARFVLGITLTESSRMAVTETERIARQSEGIQALESADMTNPRVVHRLALENAEQRKLDSALAYAKEALKLGAESDLEVWLLLARVLSAQKRFSDAETIVDAALNETGKWEQGKLLRLKAKLRLAKGEVKDAIKTYTQLLALLQVQSKSFNSAKKLPKGYVKELMSLELGTWHDLAHIYINLSQWRDAESCLSRSRLIAPYSSVRYHIEGVLYNRRGQLEEAMEAFTTALDIDPMHVPSLTSKAEILLEVGNRSGIAVVRSFLMEALRIDRLNHSAWYNLGKMFKAEGSVSSMQEAVECFQAAVTLEETMPVEPFR | – | binds

Results are given in words; binding and its absence hold for the method and conditions named. Binding can be weak; no strength is given. For part of these data: In cells and extracts the contact can be indirect.
